Test results published in paper doi:10.1101/2022.08.31.505651.
Results are given in words; binding and its absence hold for the method and conditions named. For some assays here: Binding seen in cells or lysates may run through a third protein. Some entries that bind do so weakly or less than the wild type.

Assays:
[1] = biological target: T1, NEK1 (endogenous) (human (endogenous in ARPE-19, HeLa, HEK293, U2OS)) (UniProt Q96PY6); assay: SEC
T1 sequence: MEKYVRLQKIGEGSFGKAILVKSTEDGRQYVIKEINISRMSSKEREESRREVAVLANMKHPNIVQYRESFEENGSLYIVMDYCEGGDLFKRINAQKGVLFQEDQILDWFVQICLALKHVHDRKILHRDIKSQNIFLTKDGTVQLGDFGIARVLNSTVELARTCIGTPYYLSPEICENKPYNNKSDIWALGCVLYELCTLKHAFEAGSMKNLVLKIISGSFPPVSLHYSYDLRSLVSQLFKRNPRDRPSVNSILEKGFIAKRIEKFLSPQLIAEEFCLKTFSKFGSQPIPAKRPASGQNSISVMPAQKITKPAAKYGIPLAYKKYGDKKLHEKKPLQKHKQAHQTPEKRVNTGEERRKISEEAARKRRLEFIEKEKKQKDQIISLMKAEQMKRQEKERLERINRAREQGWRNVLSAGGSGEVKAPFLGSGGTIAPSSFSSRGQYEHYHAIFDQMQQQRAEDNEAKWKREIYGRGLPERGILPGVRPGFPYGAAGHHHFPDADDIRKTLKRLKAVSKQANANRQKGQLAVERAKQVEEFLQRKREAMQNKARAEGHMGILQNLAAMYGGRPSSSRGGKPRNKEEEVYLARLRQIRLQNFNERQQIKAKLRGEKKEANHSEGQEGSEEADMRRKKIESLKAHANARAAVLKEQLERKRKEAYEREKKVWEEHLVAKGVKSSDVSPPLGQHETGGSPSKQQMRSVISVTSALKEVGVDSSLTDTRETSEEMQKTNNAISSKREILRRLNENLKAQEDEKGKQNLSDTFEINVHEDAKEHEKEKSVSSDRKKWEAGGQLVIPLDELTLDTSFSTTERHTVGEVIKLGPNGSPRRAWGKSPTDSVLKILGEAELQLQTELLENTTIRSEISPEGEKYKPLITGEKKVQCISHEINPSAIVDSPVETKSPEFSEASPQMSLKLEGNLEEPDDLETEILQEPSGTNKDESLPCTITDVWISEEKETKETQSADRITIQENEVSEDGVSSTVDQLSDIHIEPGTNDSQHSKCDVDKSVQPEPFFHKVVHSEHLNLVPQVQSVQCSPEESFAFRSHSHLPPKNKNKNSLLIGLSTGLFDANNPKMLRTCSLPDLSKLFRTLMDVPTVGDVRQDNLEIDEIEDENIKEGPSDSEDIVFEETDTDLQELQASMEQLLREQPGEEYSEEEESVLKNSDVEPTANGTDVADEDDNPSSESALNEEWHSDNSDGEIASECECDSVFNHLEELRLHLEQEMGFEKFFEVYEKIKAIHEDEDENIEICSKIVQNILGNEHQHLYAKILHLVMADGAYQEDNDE

[2] = biological target: T1, NEK1 (endogenous) (human (endogenous in ARPE-19, HeLa, HEK293, U2OS)); assay: co-IP
[3] = biological target: T1, NEK1 (endogenous) (human (endogenous in ARPE-19, HeLa, HEK293, U2OS)); assay: co-IP; remark: listed apart in the source
[4] = biological target: T2, NEK1 D1277A re-expressed in NEK1-KO ARPE-19 cells (human) (UniProt Q96PY6); assay: co-IP
T2 sequence: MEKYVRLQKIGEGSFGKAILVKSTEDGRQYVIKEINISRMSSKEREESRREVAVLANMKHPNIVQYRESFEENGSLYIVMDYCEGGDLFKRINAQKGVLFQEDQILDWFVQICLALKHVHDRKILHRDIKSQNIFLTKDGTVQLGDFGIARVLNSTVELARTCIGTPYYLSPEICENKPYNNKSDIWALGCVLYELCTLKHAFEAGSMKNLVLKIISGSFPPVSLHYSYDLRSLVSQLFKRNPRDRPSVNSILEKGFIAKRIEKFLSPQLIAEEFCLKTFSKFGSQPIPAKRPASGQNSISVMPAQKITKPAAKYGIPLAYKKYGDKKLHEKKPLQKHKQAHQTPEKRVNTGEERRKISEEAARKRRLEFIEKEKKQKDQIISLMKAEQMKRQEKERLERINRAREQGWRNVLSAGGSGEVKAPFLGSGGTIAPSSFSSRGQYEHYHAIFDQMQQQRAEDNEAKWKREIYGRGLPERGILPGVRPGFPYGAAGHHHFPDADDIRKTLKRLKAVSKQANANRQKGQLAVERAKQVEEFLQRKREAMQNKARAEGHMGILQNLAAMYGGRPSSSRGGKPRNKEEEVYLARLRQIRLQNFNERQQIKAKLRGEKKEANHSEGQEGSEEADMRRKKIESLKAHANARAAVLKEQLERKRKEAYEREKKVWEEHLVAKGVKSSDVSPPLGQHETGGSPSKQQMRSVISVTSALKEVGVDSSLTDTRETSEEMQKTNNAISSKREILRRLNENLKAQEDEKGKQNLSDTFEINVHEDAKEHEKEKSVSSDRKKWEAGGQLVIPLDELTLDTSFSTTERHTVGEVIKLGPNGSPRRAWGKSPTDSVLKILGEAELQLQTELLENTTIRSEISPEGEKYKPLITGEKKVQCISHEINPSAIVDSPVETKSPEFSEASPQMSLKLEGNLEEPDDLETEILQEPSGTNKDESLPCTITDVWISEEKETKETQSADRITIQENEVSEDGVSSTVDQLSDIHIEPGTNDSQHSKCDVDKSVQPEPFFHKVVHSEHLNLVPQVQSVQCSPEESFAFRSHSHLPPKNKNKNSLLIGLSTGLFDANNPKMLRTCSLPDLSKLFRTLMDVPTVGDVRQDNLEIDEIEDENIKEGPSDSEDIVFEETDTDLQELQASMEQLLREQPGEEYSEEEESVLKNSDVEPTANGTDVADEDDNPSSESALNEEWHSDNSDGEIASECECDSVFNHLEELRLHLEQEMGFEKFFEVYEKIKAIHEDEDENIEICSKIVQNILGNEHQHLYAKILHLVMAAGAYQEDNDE

[5] = biological target: T1, NEK1 (endogenous) (human (endogenous in ARPE-19, HeLa, HEK293, U2OS)); assay: co-IP; remark: listed apart in the source

binding [1]: binds
binding [2]: binds
binding [3]: binds
binding [4]: no binding
binding [5]: binds
B1: C21ORF2 (endogenous) (protein, UniProt O43822-1 1-256)
chain: MKLTRKMVLTRAKASELHSVRKLNCWGSRLTDISICQEMPSLEVITLSVNSISTLEPVSRCQRLSELYLRRNRIPSLAELFYLKGLPRLRVLWLAENPCCGTSPHRYRMTVLRTLPRLQKLDNQAVTEEELSRALSEGEEITAAPEREGTGHGGPKLCCTLSSLSSAAETGRDPLDSEEEATSGAQDERGLKPPSRGQFPSLSARDASSSHRGRNVLTAILLLLRELDAEGLEAVQQTVGSRLQALRGEEVQEHAE
